Test results reported in PubChem BioAssay AID270 (DTP/NCI, 2004).
The list is a part of this screen's results and no random one: it is rich in T/C values a quarter to a half above the control, in often repeated tests (any T/C) and in doses without a T/C. Other doses and runs of a compound stand elsewhere. T/C gives the treated animals as a percentage of the vehicle group. Schedule codes are those of the source, read here as Q, the interval in days (D) or hours (H), X, the number of doses. Some entries give survivors of the animals treated and no T/C: the source files T/C as zero there, which appears to mark a toxic dose or a test without result, not a measured value. Some survivor counts are full or nearly so, which does not show that the dose was tolerated: survival well below the control is almost never listed, so the zero probably covers shortened survival too. Counts of survivors are from the toxicity check (mostly the fifth day) where no day follows; animals may have died later. Some entries were tested several times; the results are listed from low to high. Brackets with × give the number of equal values in this list. For survival time, this PubChem deposit counts one and a half times the control or more as active, and values a quarter to a half above the control carry no call in these data; other NCI protocols may use other cut-offs. Some T/C values carry the count of animals alive at the toxicity check (mostly the fifth day); where none is given, no animal had died by that day.

System: BDF1 mice, s.c. Lewis lung carcinoma, T/C %
Test: NCI In Vivo Anticancer Drug Screen. Data for tumor model Lewis Lung Carcinoma (subcutaneous) in B6D2F1 (BDF1) mice
Procedure: The antitumor activity of compounds was measured in mice bearing transplantable tumors. Survival or tumor size were measured and the results are expressed as the measurement made in the treated group (T) divided by the measurement made in the vehicle treated control group (C). The tumor model used in this assay is Lewis Lung Carcinoma (subcutaneous) in B6D2F1 (BDF1) mice

[1] = T/C endpoint: median survival time, dose: 12.5 mg/kg/injection, schedule: Q01DX009 (ip), vehicle: Klucel (hydroxypropylcellulose) (HPC), higher T/C = longer survival
[2] = T/C endpoint: median survival time, dose: 25.0 mg/kg/injection, schedule: Q01DX009 (ip), vehicle: Klucel (hydroxypropylcellulose) (HPC), higher T/C = longer survival
[3] = T/C endpoint: median survival time, dose: 50.0 mg/kg/injection, schedule: Q01DX009 (ip), vehicle: Klucel (hydroxypropylcellulose) (HPC), higher T/C = longer survival
[4] = T/C endpoint: median survival time, dose: 100.0 mg/kg/injection, schedule: Q01DX009 (ip), vehicle: Klucel (hydroxypropylcellulose) (HPC), higher T/C = longer survival
[5] = T/C endpoint: median survival time, dose: 200.0 mg/kg/injection, schedule: Q01DX009 (ip), vehicle: Klucel (hydroxypropylcellulose) (HPC), higher T/C = longer survival
[6] = T/C endpoint: median survival time, dose: 6.25 mg/kg/injection, schedule: Q01DX009 (ip), vehicle: Klucel (hydroxypropylcellulose) (HPC), higher T/C = longer survival

CN(C)/N=N/c1nc[nH]c1C(N)=O
survivor count (T/C endpoint: mean tumor weight, dose: 400.0 mg/kg/injection, schedule: Q01DX010 (ip), vehicle: saline, higher T/C = larger tumour): 2 of 6 | survivor count (T/C endpoint: mean tumor weight, dose: 800.0 mg/kg/injection, schedule: Q01DX010 (ip), vehicle: saline, higher T/C = larger tumour): 0 of 6 | survivor count (T/C endpoint: median survival time, dose: 40.0 mg/kg/injection, schedule: Q01DX015 (ip), vehicle: carboxymethylcellulose (CMC), higher T/C = longer survival): 10 of 10 | T/C (T/C endpoint: median survival time, dose: 50.0 mg/kg/injection, schedule: Q01DX009 (ip), vehicle: saline with Tween-80, higher T/C = longer survival): 131 % of control | T/C (T/C endpoint: median survival time, dose: 60.0 mg/kg/injection, schedule: Q01DX015 (ip), vehicle: carboxymethylcellulose (CMC), higher T/C = longer survival): 149 % of control | T/C (T/C endpoint: median survival time, dose: 75.0 mg/kg/injection, schedule: Q01DX009 (ip), vehicle: Klucel (hydroxypropylcellulose) (HPC), higher T/C = longer survival): 125 % of control | survivor count (T/C endpoint: median survival time, dose: 75.0 mg/kg/injection, schedule: Q01DX009 (ip), vehicle: saline with Tween-80, higher T/C = longer survival): 9 of 9 | T/C (T/C endpoint: median survival time, dose: 150.0 mg/kg/injection, schedule: Q01DX009 (ip), vehicle: Klucel (hydroxypropylcellulose) (HPC), higher T/C = longer survival): 126 % of control | survivor count (T/C endpoint: median survival time, dose: 150.0 mg/kg/injection, schedule: Q01DX009 (ip), vehicle: saline with Tween-80, higher T/C = longer survival): 10 of 10 | survivor count (T/C endpoint: median survival time, dose: 300.0 mg/kg/injection, schedule: Q01DX009 (ip), vehicle: Klucel (hydroxypropylcellulose) (HPC), higher T/C = longer survival): 10 of 10 | survivor count (T/C endpoint: median survival time, dose: 300.0 mg/kg/injection, schedule: Q01DX009 (ip), vehicle: saline with Tween-80, higher T/C = longer survival): 10 of 10 and 9 of 9 | survivor count (T/C endpoint: median survival time, dose: 400.0 mg/kg/injection, schedule: Q01DX009 (ip), vehicle: saline with Tween-80, higher T/C = longer survival): 9 of 10 | T/C (T/C endpoint: median survival time, dose: 450.0 mg/kg/injection, schedule: Q01DX001 (ip), vehicle: carboxymethylcellulose (CMC), higher T/C = longer survival): 134 % of control | survivor count (T/C endpoint: median survival time, dose: 670.0 mg/kg/injection, schedule: Q01DX001 (ip), vehicle: carboxymethylcellulose (CMC), higher T/C = longer survival): 10 of 10 | survivor count (T/C endpoint: median survival time, dose: 1005.0 mg/kg/injection, schedule: Q01DX001 (ip), vehicle: carboxymethylcellulose (CMC), higher T/C = longer survival): 8 of 10 and 8 of 10 on day 11

CC1CN1c1nc(N2CC2C)nc(N2CC2C)n1 (stereo not given)
survivor count (T/C endpoint: median survival time, dose: 16.0 mg/kg/injection, schedule: Q01DX009 (ip), vehicle: saline, higher T/C = longer survival): 1 of 10

CCOC(=O)C1CCC(NC(=O)N(CCCl)N=O)CC1 (stereo not given)
T/C (T/C endpoint: median survival time, dose: 20.0 mg/kg/injection, schedule: Q01DX001 (ip), vehicle: gum acacia, higher T/C = longer survival): 130 % of control | T/C (T/C endpoint: median survival time, dose: 27.0 mg/kg/injection, schedule: Q07DX002 (ip), vehicle: gum acacia, evaluated on day 80, higher T/C = longer survival): 98 % of control | T/C (T/C endpoint: median survival time, dose: 27.0 mg/kg/injection, schedule: Q07DX002 (ip), vehicle: gum acacia, evaluated on day 84, higher T/C = longer survival): 172 % of control | T/C (T/C endpoint: median survival time, dose: 27.0 mg/kg/injection, schedule: Q07DX002 (ip), vehicle: gum acacia, evaluated on day 101, higher T/C = longer survival): 90 % of control | T/C (T/C endpoint: median survival time, dose: 27.0 mg/kg/injection, schedule: Q07DX002 (ip), vehicle: gum acacia, evaluated on day 119, higher T/C = longer survival): 232 % of control | T/C (T/C endpoint: median survival time, dose: 28.0 mg/kg/injection, schedule: Q07DX002 (ip), vehicle: gum acacia, higher T/C = longer survival): 144 % of control | survivor count (T/C endpoint: median survival time, dose: 33.0 mg/kg/injection, schedule: Q07DX002 (ip), vehicle: gum acacia, higher T/C = longer survival): 10 of 10 on day 11 | survivor count (T/C endpoint: median survival time, dose: 40.0 mg/kg/injection, schedule: Q07DX002 (ip), vehicle: gum acacia, higher T/C = longer survival): 9 of 10, 9 of 10 on day 11, 10 of 10 on day 11 | survivor count (T/C endpoint: median survival time, dose: 45.0 mg/kg/injection, schedule: Q01DX001 (ip), vehicle: gum acacia, higher T/C = longer survival): 10 of 10 on day 11 | survivor count (T/C endpoint: median tumor weight (est.), dose: 44.0 mg/kg/injection, schedule: Q01DX001 (ip), vehicle: gum acacia, higher T/C = larger tumour): 6 of 10 on day 16

CCN(CC)CCNc1ccc([N+](=O)[O-])c2sc3ccccc3c(=O)c12
survivor count (T/C endpoint: mean tumor weight, dose: 100.0 mg/kg/injection, schedule: Q01DX011 (ip), vehicle: other, higher T/C = larger tumour): 1 of 6

COc1cc2c[n+](C)c3c4cc5c(cc4ccc3c2cc1OC)OCO5 (tested in a mixture with another compound)
survivor count (T/C endpoint: median survival time, dose: 40.0 mg/kg/injection, schedule: Q01DX009 (ip), vehicle: saline, higher T/C = longer survival): 10 of 10 | survivor count (T/C endpoint: median survival time, dose: 80.0 mg/kg/injection, schedule: Q01DX009 (ip), vehicle: saline, higher T/C = longer survival): 10 of 10

CCCCCC/C=C/[N+]([O-])=NC(COC)C(C)O (stereo not given)
survivor count (T/C endpoint: mean tumor weight, dose: 20.0 mg/kg/injection, schedule: Q01DX011 (ip), vehicle: carboxymethylcellulose (CMC), higher T/C = larger tumour): 0 of 6

Nc1nc(=S)c2[nH]c(N=Nc3ccc(S(=O)(=O)Nc4ncccn4)cc3)nc2[nH]1
survivor count [1]: 10 of 10 | survivor count [2]: 10 of 10 | survivor count [3]: 10 of 10 | survivor count [4]: 10 of 10 | survivor count [5]: 10 of 10

CC(=O)CC(C)(C)N
T/C (T/C endpoint: mean tumor weight, dose: 22.0 mg/kg/injection, schedule: Q01DX011 (ip), vehicle: saline, evaluated on day 12, higher T/C = larger tumour): 138 % of control | survivor count (T/C endpoint: mean tumor weight, dose: 150.0 mg/kg/injection, schedule: Q01DX011 (ip), vehicle: methylcellulose (MC), higher T/C = larger tumour): 3 of 6

Cc1ccnc(NS(=O)(=O)c2ccc(N=Nc3nc4[nH]c(N)nc(=S)c4[nH]3)cc2)n1
survivor count (T/C endpoint: median survival time, dose: 3.12 mg/kg/injection, schedule: Q01DX009 (ip), vehicle: Klucel (hydroxypropylcellulose) (HPC), higher T/C = longer survival): 10 of 10 | survivor count [6]: 10 of 10 | survivor count [1]: 10 of 10 | survivor count [2]: 10 of 10 | survivor count [3]: 10 of 10

CC(C)C[CH2][Pb]([Cl])([CH2]CC(C)C)[CH2]CC(C)C
T/C (T/C endpoint: median survival time, dose: 0.12 mg/kg/injection, schedule: Q01DX009 (ip), vehicle: Klucel (hydroxypropylcellulose) (HPC), higher T/C = longer survival): 125 % of control

OC(COc1cccc2ccccc12)CN(CCCl)CCCl (stereo not given)
survivor count (T/C endpoint: median survival time, dose: 10.0 mg/kg/injection, schedule: Q01DX009 (ip), vehicle: Klucel (hydroxypropylcellulose) (HPC), higher T/C = longer survival): 8 of 10 and 10 of 10 | survivor count (T/C endpoint: median survival time, dose: 20.0 mg/kg/injection, schedule: Q01DX009 (ip), vehicle: Klucel (hydroxypropylcellulose) (HPC), higher T/C = longer survival): 2 of 10 and 7 of 10 | survivor count (T/C endpoint: median survival time, dose: 40.0 mg/kg/injection, schedule: Q01DX009 (ip), vehicle: Klucel (hydroxypropylcellulose) (HPC), higher T/C = longer survival): 0 of 10 (2×)

CC(CN(C)C)CN1c2ccccc2Sc2ccccc21 (stereo not given)
T/C [6]: 133 % of control [9 of 10 alive] | T/C [1]: 135 % of control | T/C [2]: 130 % of control [8 of 10 alive] | survivor count [3]: 3 of 10

CC[C@H]1CN2CCc3cc(OC)c(OC)cc3[C@@H]2C[C@@H]1C[C@H]1NCCc2cc(OC)c(OC)cc21
T/C (T/C endpoint: mean tumor weight, dose: 3.0 mg/kg/injection, schedule: Q01DX011 (ip), vehicle: saline, evaluated on day 12, higher T/C = larger tumour): 129 % of control | survivor count (T/C endpoint: mean tumor weight, dose: 6.0 mg/kg/injection, schedule: Q01DX011 (ip), vehicle: saline, higher T/C = larger tumour): 3 of 6 | survivor count (T/C endpoint: mean tumor weight, dose: 12.0 mg/kg/injection, schedule: Q01DX011 (ip), vehicle: saline, higher T/C = larger tumour): 0 of 6

CC1CCC2(OC1)OC1C(O)C3C4CCC5CC(OC6OC(CO)C(OC7OC(CO)C(O)C(OC8OCC(O)C(O)C8O)C7OC7OC(CO)C(O)C(OC8OC(CO)C(O)C(O)C8O)C7O)C(O)C6O)C(O)CC5(C)C4CCC3(C)C1C2C (stereo not given)
survivor count (T/C endpoint: mean tumor weight, dose: 25.0 mg/kg/injection, schedule: Q01DX011 (ip), vehicle: carboxymethylcellulose (CMC), higher T/C = larger tumour): 2 of 6 and 3 of 6 | survivor count (T/C endpoint: mean tumor weight, dose: 50.0 mg/kg/injection, schedule: Q01DX011 (ip), vehicle: carboxymethylcellulose (CMC), higher T/C = larger tumour): 0 of 6 | survivor count (T/C endpoint: mean tumor weight, dose: 100.0 mg/kg/injection, schedule: Q01DX011 (ip), vehicle: carboxymethylcellulose (CMC), higher T/C = larger tumour): 0 of 6 | survivor count (T/C endpoint: mean tumor weight, dose: 200.0 mg/kg/injection, schedule: Q01DX011 (ip), vehicle: carboxymethylcellulose (CMC), higher T/C = larger tumour): 0 of 6 | T/C (T/C endpoint: median survival time, dose: 0.62 mg/kg/injection, schedule: Q01DX009 (ip), vehicle: saline, higher T/C = longer survival): 129 % of control

COc1cccc(/C=N/C(=S)NC2(C)C3CCC(C3)C2(C)C)c1O (stereo not given)
survivor count (T/C endpoint: median survival time, dose: 25.0 mg/kg/injection, schedule: Q01DX009 (ip), vehicle: olive oil, sesame oil, peanut oil, higher T/C = longer survival): 10 of 10 | survivor count (T/C endpoint: median survival time, dose: 50.0 mg/kg/injection, schedule: Q01DX009 (ip), vehicle: olive oil, sesame oil, peanut oil, higher T/C = longer survival): 10 of 10 | survivor count (T/C endpoint: median survival time, dose: 200.0 mg/kg/injection, schedule: Q01DX009 (ip), vehicle: olive oil, sesame oil, peanut oil, higher T/C = longer survival): 10 of 10

O=S(=O)(O)O
survivor count [3]: 10 of 10 | survivor count [4]: 10 of 10 | survivor count [5]: 0 of 10

C[C@H]1CC[C@@]2(NC1)O[C@H]1C[C@H]3[C@@H]4CC[C@H]5C[C@@H](O)CC[C@]5(C)[C@H]4CC[C@]3(C)[C@H]1[C@@H]2C
T/C (T/C endpoint: mean tumor weight, dose: 200.0 mg/kg/injection, schedule: Q01DX011 (sc), vehicle: steroid suspending solution, evaluated on day 12, higher T/C = larger tumour): 133 % of control
